Results from the supplement of paper PMC3682954.
Structures can show the parent of a compound that is named as a salt. ± gives the standard deviation of the averaged measurements. The list shows a part of the results. Single values are uncertain, as repeats are few or missing.

Tested on: RAW 264.7
Test: HMGB1-induced TNF-alpha production relative to HMGB1-stimulated control; higher = more TNF-alpha secretion (less inhibition)
Conditions: stimulus: HMGB1 5 ug/ml, 18 h
[1] = compound concentration: 1 ug/ml

CCN(C(C)=O)c1cccc(-c2ccnc3c(C#N)cnn23)c1 [Zaleplon]
HMGB1-induced TNF-alpha production (compound concentration: 3 uM): 77.6 ± 37%

NCCc1c[nH]c2ccc(O)cc12 [Serotonin hydrochloride]
HMGB1-induced TNF-alpha production [1]: 55% | HMGB1-induced TNF-alpha production (compound concentration: 3 uM): 92.7 ± 1.2%

Ic1ccccc1CNC1C2CCN(CC2)C1C(c1ccccc1)c1ccccc1 [L-703,606 oxalate salt hydrate]
HMGB1-induced TNF-alpha production (compound concentration: 3 uM): 104%

COc1ccc2c(c1)[nH]c1c(C)nccc12 [Harmine]
HMGB1-induced TNF-alpha production [1]: 56.9% | HMGB1-induced TNF-alpha production (compound concentration: 3 uM): 61.5%

COc1ccc2c(c1)[nH]c1c(C)nccc12 [Harmine hydrochloride]
HMGB1-induced TNF-alpha production (compound concentration: 3 uM): 89.7%

O=c1cccc2n1CC1CC2CN2CCCCC12 (stereo unspecified) [Thermopsine]
HMGB1-induced TNF-alpha production [1]: 74.9%

CN1[C@@H](C[C@@H](O)c2ccccc2)CCC[C@H]1C[C@H](O)c1ccccc1 [Lobelanidine hydrochloride]
HMGB1-induced TNF-alpha production (compound concentration: 3 uM): 116%

CCCN(CCC)CCc1ccc(O)c(O)c1 [Dipropyldopamine hydrobromide]
HMGB1-induced TNF-alpha production (compound concentration: 3 uM): 85.9%

COc1ccc(C[C@H]2NC[C@H](O)[C@H]2OC(C)=O)cc1 [Anisomycin]
HMGB1-induced TNF-alpha production [1]: -5.04%

NC(=O)C[S+]([O-])C(c1ccccc1)c1ccccc1 (stereo unspecified) [Modafinil]
HMGB1-induced TNF-alpha production (compound concentration: 3 uM): 83.8 ± 15%

NC(=O)C[S+]([O-])C(c1ccccc1)c1ccccc1 (stereo unspecified)
HMGB1-induced TNF-alpha production (compound concentration: 3 uM): 74.6%

C=C1[C@@H](C)[C@H]2[C@H](Cc3ccccc3)NC(=O)[C@]23OC(=O)/C=C/[C@H](O)CCC[C@@H](C)C/C=C/[C@H]3[C@@H]1O
HMGB1-induced TNF-alpha production (compound concentration: 3 uM): 101%

NCCc1c[nH]c2ccccc12 [Tryptamine hydrochloride]
HMGB1-induced TNF-alpha production (compound concentration: 3 uM): 106%

C[C@]12CC[C@H](O)C[C@H]1CC[C@@H]1[C@@H]2C[C@@H](O)[C@]2(C)[C@@H](C3=CC(=O)OC3)CC[C@]12O [Digoxigenin]
HMGB1-induced TNF-alpha production [1]: 79.8% | HMGB1-induced TNF-alpha production (compound concentration: 3 uM): 107%

Clc1ccc(N2C[C@H]3CC[C@@H](C2)N3)nn1
HMGB1-induced TNF-alpha production (compound concentration: 3 uM): 101%

CC(=O)NC1CCSC1=O (racemic) [N-Acetyl-DL-homocysteine Thiolactone]
HMGB1-induced TNF-alpha production (compound concentration: 3 uM): 73.9%

CC(Cc1ccccc1)NCCC(c1ccccc1)c1ccccc1 (stereo unspecified) [Prenylamine lactate]
HMGB1-induced TNF-alpha production (compound concentration: 3 uM): 33.1%

CN1CCN(C(=O)OC2c3nccnc3C(=O)N2c2ccc(Cl)cn2)CC1 (stereo unspecified) [Zopiclone]
HMGB1-induced TNF-alpha production (compound concentration: 3 uM): 125%

CN1CCN(C(=O)OC2c3nccnc3C(=O)N2c2ccc(Cl)cn2)CC1 (stereo unspecified)
HMGB1-induced TNF-alpha production (compound concentration: 3 uM): 74.7%

Clc1ccc(C(OCCN2CCCCC2)c2ccccc2)cc1 (stereo unspecified)
HMGB1-induced TNF-alpha production (compound concentration: 3 uM): 83.6%

Clc1ccc(C(OCCN2CCCCC2)c2ccccc2)cc1 (stereo unspecified) [Cloperastine hydrochloride]
HMGB1-induced TNF-alpha production (compound concentration: 3 uM): 103%

C[C@@H](CO)NC(=O)[C@@H]1C=C2c3cccc4[nH]cc(c34)C[C@H]2N(C)C1
HMGB1-induced TNF-alpha production (compound concentration: 3 uM): 85.7%

C[C@@H](CO)NC(=O)[C@@H]1C=C2c3cccc4[nH]cc(c34)C[C@H]2N(C)C1 [Ergonovine]
HMGB1-induced TNF-alpha production [1]: 72.8%
